The target of this experiment is GST-tagged p21 binding domain of PAK1 (UniProt Q13153). Briefly: pull-down; GST-PBD coupled to glutathione beads; 500 ug of cleared A2780 extracts (24 h after transfection with pcDNA3.1 or pcDNA3.1/eIF6) incubated over-night at 4°C; cdc42 detected by Western blotting; only the target purified. In general terms: Immunoblotting shows a protein as a band on a membrane.

Sequences of proteins named here, by UniProt entry; tags and fusion partners are left off. A change or cut given only in a name is not applied to a line headed by its entry.
UniProt Q13153: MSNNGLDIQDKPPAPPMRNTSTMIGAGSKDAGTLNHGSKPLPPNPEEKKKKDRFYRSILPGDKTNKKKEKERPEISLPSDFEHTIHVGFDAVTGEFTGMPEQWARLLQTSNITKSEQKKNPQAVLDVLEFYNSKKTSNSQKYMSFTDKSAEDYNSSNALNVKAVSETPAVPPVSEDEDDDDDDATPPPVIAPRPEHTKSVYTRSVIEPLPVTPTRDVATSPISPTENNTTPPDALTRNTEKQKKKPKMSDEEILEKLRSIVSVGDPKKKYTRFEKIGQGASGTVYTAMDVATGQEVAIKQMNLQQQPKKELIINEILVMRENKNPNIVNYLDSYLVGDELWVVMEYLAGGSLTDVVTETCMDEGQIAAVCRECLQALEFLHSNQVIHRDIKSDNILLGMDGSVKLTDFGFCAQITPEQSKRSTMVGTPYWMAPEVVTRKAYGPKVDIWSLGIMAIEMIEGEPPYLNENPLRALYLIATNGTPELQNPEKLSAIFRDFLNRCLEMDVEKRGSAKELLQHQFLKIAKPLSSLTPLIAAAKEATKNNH
UniProt P60953: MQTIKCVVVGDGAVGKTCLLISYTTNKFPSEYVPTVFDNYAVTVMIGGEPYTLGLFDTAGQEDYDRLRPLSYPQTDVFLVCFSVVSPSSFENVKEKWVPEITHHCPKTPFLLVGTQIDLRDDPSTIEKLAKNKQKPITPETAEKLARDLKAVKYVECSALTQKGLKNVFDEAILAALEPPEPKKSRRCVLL

No constants are given. Whether binding was seen depends on the method and setting. Binding seen in cells or lysates may run through a third protein. Binding can be weak; no strength is given.

In the case of cdc42 (from UniProt P60953 1-191), the binding result is listed as “binds”.

For the origin of these results see publication PMC4381359.
